Results are given in words; binding and its absence hold for the method and conditions named. In cells and extracts the contact can be indirect. Some binding calls cover weakened binding; strength is not graded here. Where a sequence is shown, tags or fusion partners need not be part of it.
T1: HA-FBXL8 (full-length human Fbxl8 with HA-tag) (human) (UniProt Q96CD0)
T1 sequence: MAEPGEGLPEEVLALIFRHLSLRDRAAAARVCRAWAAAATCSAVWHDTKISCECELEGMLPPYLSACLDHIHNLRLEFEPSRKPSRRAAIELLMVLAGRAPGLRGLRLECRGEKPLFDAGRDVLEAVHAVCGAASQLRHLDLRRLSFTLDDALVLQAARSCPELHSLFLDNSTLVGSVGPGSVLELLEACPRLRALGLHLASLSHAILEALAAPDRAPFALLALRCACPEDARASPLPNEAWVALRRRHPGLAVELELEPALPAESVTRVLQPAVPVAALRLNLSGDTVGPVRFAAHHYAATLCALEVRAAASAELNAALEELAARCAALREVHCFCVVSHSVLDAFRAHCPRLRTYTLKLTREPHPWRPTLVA

By UniProt entry, the sequences of proteins in these tests, tags left out. Where a name states a change or a piece, a line headed by the entry shows the natural chain unless it says otherwise. Residues count along the entry.
UniProt O95863: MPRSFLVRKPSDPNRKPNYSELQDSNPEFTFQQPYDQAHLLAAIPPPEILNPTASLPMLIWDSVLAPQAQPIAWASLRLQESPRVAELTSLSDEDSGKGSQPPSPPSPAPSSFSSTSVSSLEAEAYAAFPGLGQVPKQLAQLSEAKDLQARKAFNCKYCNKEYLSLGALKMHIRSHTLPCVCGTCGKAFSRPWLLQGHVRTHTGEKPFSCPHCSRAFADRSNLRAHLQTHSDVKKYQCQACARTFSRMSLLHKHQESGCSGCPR
Flag-Snail1 C-terminal fragment (Flag-CT: amino acids 152-264): residues 152-264 of O95863


Legend:
[1] = target: T1, HA-FBXL8 (full-length human Fbxl8 with HA-tag) (human); assay: co-IP; HEK293T cells transiently transfected with HA-FBXL8 and Flag-Snail1, 48 h; lysates precleared with Protein A/G-agarose, incubated with anti-Flag or anti-HA antibody (control IgG) at 4 °C overnight; immunoblot
[2] = target: Flag-Snail1 C-terminal fragment (Flag-CT: amino acids 152-264) (UniProt O95863); assay: co-IP; Flag-Snail1 fragments (Flag-CT 152-264, Flag-NT 1-151) with FBXL8; cell line and precipitating antibody not stated
Flag-Snail1 = Flag-Snail1 (UniProt O95863); assay: co-IP; HEK293T cells transiently transfected with HA-FBXL8 and Flag-Snail1, 48 h; lysates precleared with Protein A/G-agarose, incubated with anti-Flag or anti-HA antibody (control IgG) at 4 °C overnight; immunoblot

binding [1]	binding [2]	binding (Flag-Snail1)	Molecule
binds			Flag-Snail1 (from UniProt O95863 1-264)
	binds	binds	HA-FBXL8 (full-length human Fbxl8 with HA-tag) (protein, UniProt Q96CD0 1-374) MAEPGEGLPEEVLALIFRHLSLRDRAAAARVCRAWAAAATCSAVWHDTKISCECELEGMLPPYLSACLDHIHNLRLEFEPSRKPSRRAAIELLMVLAGRAPGLRGLRLECRGEKPLFDAGRDVLEAVHAVCGAASQLRHLDLRRLSFTLDDALVLQAARSCPELHSLFLDNSTLVGSVGPGSVLELLEACPRLRALGLHLASLSHAILEALAAPDRAPFALLALRCACPEDARASPLPNEAWVALRRRHPGLAVELELEPALPAESVTRVLQPAVPVAALRLNLSGDTVGPVRFAAHHYAATLCALEVRAAASAELNAALEELAARCAALREVHCFCVVSHSVLDAFRAHCPRLRTYTLKLTREPHPWRPTLVA

Reference: article PMC11016067
